Assay results published in PubChem BioAssay AID1688 (National Center for Advancing Translational Sciences (NCATS), 2009).
About 2,400 (1.1%) of roughly 220,000 compounds were called active. Inconclusive means that the source gave no clear call. Such entries were picked first, then a sample of the others. Calls follow the shape of the dose curve; as a rule, active = well fitted inhibition curve with a large enough effect; inconclusive = small, poorly fitted or top-dose-only effect, or effect the other way; inactive = no such curve, though single readings can be large or run the other way. Where the call is inconclusive, the potency comes from a doubtful curve fit.
% is scaled to controls: 0 for no effect and ±100 for the full control effect; potency is read from the fitted curve at half-maximal effect.

Assay: qHTS Multiplex Assay to Identify Dual Action Probes in a Cell Model of Huntington: Aggregate Formation (GFP); also: nearly all actives have a fitted effect of over 60% in size
Conditions: PC12 HttQ103-GFP aggregates, Acumen cytometry, 40 h; activity change, negative = inhibition: at 46.1 µM (top of the series) unless noted
Summary of the method: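 Steps: seed 1500 PC12 HTTQ103-GFP cells/well; add tebufenozide, 100 nM final; add compound titration; add ATPLite reagent; quantify GFP aggregates by laser scanning cytometry.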
In the case of `CC(=O)N(/N=C/c1ccc([N+](=O)[O-])o1)c1nc2ccccc2c(=O)n1-c1ccccc1`, the activity change, negative = inhibition is reported as inactive: 7.48% [at 9.22 µM].
In the case of `Cc1ccc(C(=O)NNc2c3ccccc3nc3ccccc23)cc1`, the activity change, negative = inhibition is reported as inactive: -10.4% [at 9.22 µM].
With `Cc1ccc(S(=O)(=O)N(CC(=O)NCCC2=CCCCC2)Cc2ccccc2)cc1` the Potency was inconclusive: 25.1 µM [inhibitor, single point].
With `Cc1cc(C[n+]2ccccc2)c2nsnc2c1` the Potency was inconclusive: 35.5 µM [inhibitor, single point].
For `CCOC(=O)c1c(C)[nH]c(N=Nc2cccc(C)c2)c1C`, the Potency was inconclusive: 20 µM [inhibitor, single point].
In the case of `O=C(Nc1ccc(N2CCN(C(=O)c3ccco3)CC2)c(Cl)c1)c1cccs1`, the Potency is reported as inconclusive: 35.5 µM [inhibitor, single point].
For `CC(C)(C)c1ccc(S(=O)(=O)Nc2ccc(Cc3ccncc3)cc2)cc1`, the Potency was inconclusive: 14.1 µM [inhibitor, single point].
In the case of `COc1ccc(NC(=S)N(CCCN2CCOCC2)C(C)c2cc3cccc(OC)c3o2)cc1` (stereo unspecified), the Potency is reported as inconclusive: 35.5 µM [inhibitor, single point].
In the case of `CCCCCn1c(CN2CCN(c3cccc(Cl)c3)CC2)nc2c1c(=O)n(C)c(=O)n2C`, the Potency is reported as inconclusive: 12.6 µM [inhibitor, single point].
With `CN(c1nccc(=O)[nH]1)C1CCN(c2nc3ccccc3n2Cc2ccc(F)cc2)CC1` the Potency was “inactive”.
For `CCNC(=S)NNC(=O)CCn1cc(C)cn1`, the Potency was inconclusive: 3.55 µM [activator, partial curve].
In the case of `COc1ccccc1NC(=O)N1CCn2c(nc3ccccc32)C1`, the Potency is reported as “inactive”.
For `CCCCNc1nc(N(C)c2ccccc2)nc(-n2ccnc2)n1`, the Potency was inconclusive: 20 µM [inhibitor, single point].
For `OC(CN1CCN(c2cccc(C(F)(F)F)c2)CC1)c1c[nH]c2ccccc12` (stereo unspecified), the Potency was inconclusive: 35.5 µM [inhibitor, single point].
With `O=c1[nH]c(SCCN2CCOCC2)nc(O)c1-c1ccccc1` the activity change, negative = inhibition was inactive: -11.9% [at 9.22 µM].
For `O=c1c2[nH]c3ccc(Cl)cc3c2ncn1CCN1CCCCC1`, the Potency was inconclusive: 5.62 µM [activator, partial curve].
For `Fc1ccc(CSc2nc3ncc(Br)cc3[nH]2)cc1`, the Potency was “inactive”.
With `COc1cccc(-c2csc(N3CCN(C(=S)Nc4ccccc4Cl)CC3)n2)c1` the Potency was inconclusive: 12.6 µM [inhibitor, single point].
For `CC(=O)Nc1ccc(S(=O)(=O)N2CCN(C)CC2)cc1`, the Potency was “inactive”.
For `O=C(c1cc2cc(C(F)(F)F)ccc2s1)N1CCOCC1`, the Potency was “inactive”.
With `COc1ccc(OC)c(-n2c(SCC(=O)N3CCc4ccccc43)nc3c(c2=O)SCC3)c1` the Potency was “inactive”.
In the case of `O=C(Nc1nc(-c2ccc(S(=O)(=O)N3CCCC3)cc2)cs1)C1COc2ccccc2O1` (stereo unspecified), the Potency is reported as inconclusive: 11.2 µM [inhibitor, partial curve].
For `COc1ccccc1C(=O)NCC(=O)N/N=C/c1cn[nH]c1-c1ccccc1`, the Potency was inconclusive: 28.2 µM [activator, single point].
With `Cc1ccc(S(=O)(=O)NCCCCCC(=O)NC(C)(C)CO)cc1` the Potency was “inactive”.
For `O=C1c2ccccc2-c2nnc(-c3ccccc3)cc21`, the Potency was “inactive”.
With `CCOC(=O)Cc1c(C)nc2c(-c3ccc(Cl)cc3)c[nH]n2c1=O` the Potency was inconclusive: 15.8 µM [inhibitor, single point].
With `CCOC(=O)Cn1c(=O)oc2cc(S(=O)(=O)N(C)Cc3ccco3)ccc21` the Potency was inconclusive: 3.98 µM [activator, partial curve].
For `CSc1nc2ccc(S(=O)(=O)Nc3c(C)n(C)n(-c4ccccc4)c3=O)cc2s1`, the Potency was inconclusive: 35.5 µM [inhibitor, single point].
With `O=C(/C=C/c1cccc([N+](=O)[O-])c1)n1cnc2ccccc21` the Potency was inconclusive: 35.5 µM [inhibitor, single point].
In the case of `COc1cc(/C=N/Nc2ccc3ccccc3c2)ccc1OC(=O)c1ccco1`, the Potency is reported as inconclusive: 11.2 µM [inhibitor, single point].
In the case of `COc1ccc(CCN(Cc2cc3cc(C)cc(C)c3nc2Cl)C(=O)C2CC2)cc1`, the Potency is reported as inconclusive: 14.1 µM [inhibitor, single point].
With `CCOC(=O)Nc1ccc2c(c1)N(C(=O)CCN1CCOCC1)c1ccccc1S2=O` (stereo unspecified) the Potency was inconclusive: 35.5 µM [inhibitor, single point].
In the case of `O=c1c2c3nc4ccccc4nc3n(Cc3ccccc3)c2ncn1Cc1ccco1`, the Potency is reported as inconclusive: 0.316 µM [inhibitor, full curve, poor fit].
In the case of `COc1ccc(-c2nc3ccccc3c(=O)n2NC(=O)Cc2ccccc2)cc1`, the Potency is reported as inconclusive: 3.55 µM [activator, partial curve, poor fit].
For `COc1ccc(-n2c(SCC(=O)N3CCCC3)nc3ccccc3c2=O)cc1`, the activity change, negative = inhibition was inactive: -15.5% [at 9.22 µM].
With `c1ccc(CCSc2ncnc3nc[nH]c23)cc1` the Potency was inconclusive: 22.4 µM [inhibitor, single point].
With `Cc1ccc(NC(=O)c2c(C)nn(-c3ccccc3)c2Cl)cc1` the Potency was “inactive”.
For `CC(OC(=O)c1ccco1)C(=O)NC1CCCCC1` (stereo unspecified), the activity change, negative = inhibition was inactive: 11% [at 9.22 µM].
With `CCOC(=O)C(/C=C(\C#N)C(=O)OCC)=C(/N)N1CCN(c2ccc(OC)cc2)CC1` the Potency was inconclusive: 8.91 µM [activator, single point].
With `Cc1cc(C)n(-c2nc(NCCN(C)C)c3c4c(sc3n2)CCCC4)n1` the Potency was inconclusive: 5.62 µM [inhibitor, single point].
With `CS(=O)(=O)c1cc([N+](=O)[O-])c(Sc2nc3ccccc3[nH]2)c([N+](=O)[O-])c1` the Potency was inconclusive: 5.62 µM [inhibitor, single point].
For `O=C(O)CCN1C(=O)/C(=C/c2cn(-c3ccccc3)nc2-c2cccs2)SC1=S`, the activity change, negative = inhibition was inactive: -2.26% [at 9.22 µM].
In the case of `COC(=O)[C@H](CC(C)C)NC(=O)NCCC1=CCCCC1`, the activity change, negative = inhibition is reported as inactive: -7.28% [at 9.22 µM].
In the case of `COc1ccc(C2C(C(C)=O)=C(C)N=c3s/c(=C\c4ccco4)c(=O)n32)c(OC)c1` (stereo unspecified), the Potency is reported as “inactive”.
For `Cc1ccc(C(C(=O)NCc2ccco2)N(C(=O)CNC(=O)c2cccs2)c2c(C)cccc2C)cc1` (stereo unspecified), the Potency was inconclusive: 31.6 µM [activator, single point].
In the case of `Cc1cc(S(=O)(=O)Nc2c(C(=O)O)[nH]c3ccccc23)ccc1F`, the Potency is reported as inconclusive: 5.62 µM [inhibitor, single point].
For `O=C(Nc1ccccc1)N1CC=C(c2ccccc2)CC1`, the Potency was “inactive”.
In the case of `C=CCN1C(=O)C(O)(CC(=O)c2ccc(-n3cccc3)cc2)c2ccccc21` (stereo unspecified), the Potency is reported as inconclusive: 31.6 µM [activator, single point].
For `COc1ccc([N+](=O)[O-])cc1NC(=O)C(C)OC(=O)c1cccnc1` (stereo unspecified), the Potency was “inactive”.
In the case of `Cn1c(=O)c2nc(NCc3ccccc3)cnc2n(C)c1=O`, the activity change, negative = inhibition is reported as inactive: 0.594% [at 9.22 µM].
For `O=[N+]([O-])c1ccc(O)c(-c2nc(-c3ccccc3)c(-c3cccs3)[nH]2)c1`, the Potency was active: 7.94 µM.
In the case of `Cc1cccc(C)c1-n1nnnc1S(=O)(=O)Cc1ccccc1Cl`, the Potency is reported as inconclusive: 22.4 µM [inhibitor, single point].
With `CCOC(=O)c1cc2c(ccn2C)n1CC(=O)N1CCN(c2cccc(C(F)(F)F)c2)CC1` the Potency was inconclusive: 5.62 µM [inhibitor, single point].
With `C=CCn1c(SCC(=O)Nc2cccnc2Cl)nnc1-c1ccc(C(C)(C)C)cc1` the Potency was inconclusive: 3.98 µM [inhibitor, single point].
In the case of `CCOc1ccc(NC(=S)N=Nc2c(O)[nH]c3ccccc23)cc1`, the Potency is reported as inconclusive: 10 µM [inhibitor, partial curve].
With `COc1ccc(N2C(=O)C3C(C2=O)C2C=CC3C23CC3)c([N+](=O)[O-])c1` (stereo unspecified) the Potency was “inactive”.
With `COc1cc(/C=C2\SC(=O)N(CC(=O)Nc3cccc(C)c3)C2=O)cc([N+](=O)[O-])c1O` the Potency was “inactive”.
For `Cc1ccc(NC(=O)c2oc3ccccc3c2NC(=O)C2CCCO2)cc1C` (stereo unspecified), the Potency was inconclusive: 7.94 µM [inhibitor, partial curve].
With `CN1CCN(C(=O)/C(=C/c2ccc(F)cc2)c2ccsc2)CC1` the Potency was “inactive”.
With `COc1cccc(C2CC(c3ccccc3)Nc3ncnn32)c1` (stereo unspecified) the Potency was “inactive”.
In the case of `CCCn1c(NCc2ccco2)nc2ccccc21`, the Potency is reported as inconclusive: 0.562 µM [inhibitor, partial curve, poor fit].
In the case of `CCOc1ccc(NS(=O)(=O)c2ccc(N)cc2)cc1`, the Potency is reported as “inactive”.
For `c1ccc(CCNc2ncnc3nc[nH]c23)cc1`, the Potency was active: 11.2 µM.
For `COc1ccc(OC)c(CNC(=O)c2cc(=O)[nH]c3ccc(S(=O)(=O)N4CCCC4)cc23)c1`, the Potency was inconclusive: 35.5 µM [activator, single point].
In the case of `Cc1cc(C)c(S(=O)(=O)NCc2ccncc2)c(C)c1`, the Potency is reported as active: 6.31 µM.
In the case of `COc1ccc(C)cc1NC(=O)C(OC(=O)c1cc(C)oc1C)c1ccccc1` (stereo unspecified), the Potency is reported as inconclusive: 11.2 µM [activator, single point].
With `c1ccc(-c2ccccc2-c2nc(-c3ccncc3)no2)cc1` the Potency was inconclusive: 2.51 µM [inhibitor, single point].
With `CCC1(C)NC(=O)N(CC(=O)Nc2sc3c(c2C(=O)OC)CCCCC3)C1=O` (stereo unspecified) the Potency was “inactive”.
With `Cc1ccc(NC(N)=S)cc1C` the Potency was “inactive”.
For `O=[N+]([O-])c1ccc(/C=N/Nc2nc(N3CCCCCC3)nc(N3CCCCCC3)n2)o1`, the Potency was active: 7.08 µM.
In the case of `CC(/C=N/n1c(-c2cccnc2)n[nH]c1=S)=C\c1ccccc1`, the Potency is reported as inconclusive: 12.6 µM [inhibitor, single point].
